Results of single-concentration screens

Amino acid sequences for entries named in this document (tags omitted). Residues count along the entry.
UniProt A4I591, 1-473: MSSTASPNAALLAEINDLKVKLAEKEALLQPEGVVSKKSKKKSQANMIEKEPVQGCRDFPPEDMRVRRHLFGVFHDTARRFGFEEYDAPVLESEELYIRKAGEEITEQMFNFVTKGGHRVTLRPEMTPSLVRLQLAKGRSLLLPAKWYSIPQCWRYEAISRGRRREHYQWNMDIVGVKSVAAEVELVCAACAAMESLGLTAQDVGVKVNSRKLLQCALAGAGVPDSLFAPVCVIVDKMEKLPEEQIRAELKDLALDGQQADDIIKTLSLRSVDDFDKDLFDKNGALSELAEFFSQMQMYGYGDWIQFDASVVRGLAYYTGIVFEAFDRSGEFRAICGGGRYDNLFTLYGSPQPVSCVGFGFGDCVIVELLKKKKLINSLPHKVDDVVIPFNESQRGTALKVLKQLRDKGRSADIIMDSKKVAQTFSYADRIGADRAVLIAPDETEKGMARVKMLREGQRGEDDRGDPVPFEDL

The values are deposited in ChEMBL (CHEMBL3988442, “University of Dundee, Small-Polar-MMV Screening Library” (2021)).

The filed quantity is “Percent Effect” (%).
The controls that fix the scale are not given in the record; negative values are as filed.
This is an unselected part of the compounds tested.
A dash means the value is not listed here; it may have been measured.

Toxoplasma: 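Assay of Toxoplasma gondii numbers, read through their beta-galactosidase reporter with a colour substrate. Tested at 10 µM. Higher reads as fewer parasites (inferred from which compounds were picked for retests). About 67,000 compounds were tested under these conditions; 0.38% (about 260) showed 50% or more at least once.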
LiHisRS: 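Enzyme assay of histidyl-tRNA synthetase; the read-out is not stated. Target: Histidine-tRNA ligase, Leishmania infantum (UniProt A4I591). Compounds at 30 µM. Direction is inferred from retests: higher values go with stronger inhibition. The assay is labelled LdHisRS but filed under L. infantum. Of about 69,000 compounds tested this way, about 410 (0.6%) reached 50% or more in at least one test.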

With CC(C)n1nc(Cn2cccn2)c2c1CN(C1CCOC1)C2.O=C(O)C(F)(F)F (centres unmarked) the screen gave Toxoplasma: -1.596%.
With Cc1noc(C)c1CN1C[C@H]2CN(Cc3cccc(F)c3)C[C@H]2C1 the screen gave LiHisRS: 2.703%.
With CN1CCN(C(=O)c2ccccc2)CC(Cc2cc(N(C)C)ncn2)C1 (centres unmarked) the screen gave Toxoplasma: -6.22%; LiHisRS: 18.57%.
With CCN(CC1CCOC1)C(=O)Nc1ccc(N2CCOCC2)nc1 (centres unmarked) the screen gave Toxoplasma: 5.634%; LiHisRS: 10.19%.
With Cc1[nH]c2c(F)cccc2c1CC(=O)N1CCC(NS(C)(=O)=O)CC1 the screen gave Toxoplasma: -17.64%; LiHisRS: 10.83%.
With CC(C)N1CCCC1c1csc(N)n1 (centres unmarked) the screen gave Toxoplasma: 14.23%; LiHisRS: 16.9%.
With CCC(C)[C@H](N)c1nnc(SCC(=O)Nc2ccc(Br)cc2)o1 (some centres unmarked) the screen gave LiHisRS: 0%.
With c1ncn(CC2CN(CC3CCCCC3)CCO2)n1 (centres unmarked) the screen gave Toxoplasma: 11.72%; LiHisRS: 10.26%.
With CC(=O)N1CCCN(C(=O)NC(C)Cn2cccn2)CC1 (centres unmarked) the screen gave Toxoplasma: 18.16%; LiHisRS: 0.8772%.
With [H][C@]12CC[C@]([H])(CN(Cc3cc(-c4ccccc4)no3)C1)N(CC1CCC1)C2 the screen gave Toxoplasma: 4.847%.
With CC1CCc2sc(C(=O)Nc3cnn(C)c3)cc2C1 (centres unmarked) the screen gave Toxoplasma: 15.3%; LiHisRS: 30.3%.
With O=c1[nH]c2c(-c3ccccn3)nsc2c(=O)n1C1CCCCC1 the screen gave Toxoplasma: -14.09%; LiHisRS: 21.74%.
With COCCc1noc(CN2CCCC2c2noc(C(C)C)n2)n1 (centres unmarked) the screen gave Toxoplasma: 24.86%; LiHisRS: 8.235%.
With CN(C)Cc1n[nH]c2c1CCN(Cc1cccs1)C2 the screen gave LiHisRS: 18.42%.
With [H][C@@]12CN(CC(C)C)C[C@]1(C(=O)NCC1CC1)CCCN2c1ncccn1 the screen gave Toxoplasma: 7.44%.
With OC(CNc1ccc(Cl)cn1)CN1CCOCC1 (centres unmarked) the screen gave Toxoplasma: 0%; LiHisRS: 8.219%.
With O=C(NCC1(Sc2ccccc2)CC1)c1c[nH]nn1 the screen gave Toxoplasma: 1.679%; LiHisRS: 16.67%.
With COc1cccc(CNc2cnn(C)c(=O)c2Cl)c1 the screen gave Toxoplasma: 2.171%; LiHisRS: 12.16%.
With N#Cc1cccc(S(=O)(=O)NC2CCN(Cc3ccccc3)C2=O)c1 (centres unmarked) the screen gave LiHisRS: -23.6%.
With CCOCCCNC(=O)CN(c1cc(C)cc(C)c1)S(C)(=O)=O the screen gave Toxoplasma: 15.18%; LiHisRS: 13.79%.
With O=C(Nc1ccc(CCN2CCOCC2)cc1)C1CCC1 the screen gave Toxoplasma: 3.893%; LiHisRS: 14.68%.
With [H][C@]12CN(Cc3ccccc3Cl)CCN1C(=O)N(Cc1ccc(C)cc1)C2 the screen gave Toxoplasma: -0.6435%.
With Cn1cc(CN2CCC[C@]3(C(=O)O)CN(c4ncccn4)C[C@@H]3C2)cn1 the screen gave LiHisRS: 27.78%.
With CN(CCCNC(=O)c1ccc(C#N)cc1)CC(F)(F)F the screen gave Toxoplasma: 15.5%; LiHisRS: -9.677%.
With O=C(O)C(F)(F)F.O=C(O)C(F)(F)F.[H][C@@]12CN(Cc3ccsc3)CCC[C@]1(C(=O)O)CN(c1ccccn1)C2 the screen gave Toxoplasma: -3.775%.
With O=C(NCc1cccnc1)C1=NOC2(CCN(C(=O)N3CCCC3)C2)C1.O=C(O)C(F)(F)F (centres unmarked) the screen gave Toxoplasma: 6.817%.
With COCCNC(=O)[C@@H]1CCO[C@@H]2CCN(Cc3cnn(C)c3)C[C@@H]21 the screen gave LiHisRS: 10.26%.
With CN(C)c1nccc(NC(=O)c2ccncc2)n1 the screen gave Toxoplasma: -16.43%; LiHisRS: 8.219%.

For reference, 3 entries once more:

SMILES,Toxoplasma,LiHisRS
[H][C@@]12CN(CC(C)C)C[C@]1(C(=O)NCC1CC1)CCCN2c1ncccn1,7.44,-
CN(C)c1nccc(NC(=O)c2ccncc2)n1,-16.43,8.219
OC(CNc1ccc(Cl)cn1)CN1CCOCC1 (centres unmarked),0,8.219